Results as given in article PMC10338493.
Results are given in words; binding and its absence hold for the method and conditions named. In cells and extracts the contact can be indirect. These calls come from enrichment with a bait or labelling near it, and not all partners need be listed.

Protein sequences, listed by entry. Tags and fused reporters are not part of them. Residues count along the entry.
UniProt P26618, residues 25-1089: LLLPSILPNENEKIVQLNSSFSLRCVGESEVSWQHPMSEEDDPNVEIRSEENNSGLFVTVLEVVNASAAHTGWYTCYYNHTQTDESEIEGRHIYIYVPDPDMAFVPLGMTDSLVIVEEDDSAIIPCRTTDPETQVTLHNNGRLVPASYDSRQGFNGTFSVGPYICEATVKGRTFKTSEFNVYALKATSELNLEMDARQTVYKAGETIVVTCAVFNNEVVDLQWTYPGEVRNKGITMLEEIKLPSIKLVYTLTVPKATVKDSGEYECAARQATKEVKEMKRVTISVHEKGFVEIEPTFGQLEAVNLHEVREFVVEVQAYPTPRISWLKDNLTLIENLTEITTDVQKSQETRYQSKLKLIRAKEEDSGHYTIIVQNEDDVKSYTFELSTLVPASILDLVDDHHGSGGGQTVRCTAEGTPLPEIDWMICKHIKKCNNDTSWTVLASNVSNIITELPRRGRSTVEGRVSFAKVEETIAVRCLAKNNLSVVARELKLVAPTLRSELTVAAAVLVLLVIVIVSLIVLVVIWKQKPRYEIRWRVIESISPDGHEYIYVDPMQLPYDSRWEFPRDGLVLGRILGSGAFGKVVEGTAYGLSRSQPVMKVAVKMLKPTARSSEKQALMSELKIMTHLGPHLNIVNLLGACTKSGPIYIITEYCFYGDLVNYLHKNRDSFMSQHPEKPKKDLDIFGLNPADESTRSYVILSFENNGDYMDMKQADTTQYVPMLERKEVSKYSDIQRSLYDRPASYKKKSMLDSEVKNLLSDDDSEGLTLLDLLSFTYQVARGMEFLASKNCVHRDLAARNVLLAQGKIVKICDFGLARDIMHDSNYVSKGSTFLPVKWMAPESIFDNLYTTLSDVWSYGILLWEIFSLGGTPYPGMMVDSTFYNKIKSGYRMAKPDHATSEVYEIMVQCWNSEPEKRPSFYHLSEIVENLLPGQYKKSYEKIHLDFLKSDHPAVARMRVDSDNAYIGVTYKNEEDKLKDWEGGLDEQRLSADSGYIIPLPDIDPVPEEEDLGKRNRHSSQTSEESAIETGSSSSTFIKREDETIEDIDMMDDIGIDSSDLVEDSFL
UniProt P01127, residues 82-190: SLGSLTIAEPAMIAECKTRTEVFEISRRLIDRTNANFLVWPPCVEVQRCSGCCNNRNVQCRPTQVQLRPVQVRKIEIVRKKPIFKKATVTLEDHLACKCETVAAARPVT

Target: PDGF receptor Pdgfra on NIH 3T3 cells (mouse (endogenous in NIH 3T3)) (UniProt P26618)
Experiment: cross-linking + affinity purification with mass spectrometry; Photo-IGC: purified ligand coupled to probe 1 (NHS ester), incubated with living cells in PBS at 4 °C for 10 min, 5 min UV (365 nm), streptavidin enrichment, LC-MS/MS, label-free comparison with a control (glycine, Tris, BSA or another ligand); only the binder purified

Substance: platelet-derived growth factor B (PDGF-B) (from UniProt P01127 82-190) (ligand)
- binding: binds
